Paper doi:10.1101/2020.09.09.290387
These are yes or no findings as the source states them, for the method shown. For some assays here: Binding seen in cells or lysates may run through a third protein. Some results given as binding are weak or reduced against the parent protein; the word gives no strength.

Amino acid sequences for entries named in this document (tags omitted).
UniProt Q9H6I2, whole entry: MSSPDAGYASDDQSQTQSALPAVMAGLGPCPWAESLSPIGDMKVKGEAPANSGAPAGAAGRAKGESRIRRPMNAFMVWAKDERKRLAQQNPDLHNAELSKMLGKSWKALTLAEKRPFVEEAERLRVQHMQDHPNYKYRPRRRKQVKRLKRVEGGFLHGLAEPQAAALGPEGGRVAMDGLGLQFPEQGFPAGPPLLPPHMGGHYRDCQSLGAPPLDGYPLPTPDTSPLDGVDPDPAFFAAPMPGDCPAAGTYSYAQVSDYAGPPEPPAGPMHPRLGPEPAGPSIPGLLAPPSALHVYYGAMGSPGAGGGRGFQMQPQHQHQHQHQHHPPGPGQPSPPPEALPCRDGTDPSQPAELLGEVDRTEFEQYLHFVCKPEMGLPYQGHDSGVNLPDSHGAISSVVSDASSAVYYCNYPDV
UniProt Q06710, whole entry: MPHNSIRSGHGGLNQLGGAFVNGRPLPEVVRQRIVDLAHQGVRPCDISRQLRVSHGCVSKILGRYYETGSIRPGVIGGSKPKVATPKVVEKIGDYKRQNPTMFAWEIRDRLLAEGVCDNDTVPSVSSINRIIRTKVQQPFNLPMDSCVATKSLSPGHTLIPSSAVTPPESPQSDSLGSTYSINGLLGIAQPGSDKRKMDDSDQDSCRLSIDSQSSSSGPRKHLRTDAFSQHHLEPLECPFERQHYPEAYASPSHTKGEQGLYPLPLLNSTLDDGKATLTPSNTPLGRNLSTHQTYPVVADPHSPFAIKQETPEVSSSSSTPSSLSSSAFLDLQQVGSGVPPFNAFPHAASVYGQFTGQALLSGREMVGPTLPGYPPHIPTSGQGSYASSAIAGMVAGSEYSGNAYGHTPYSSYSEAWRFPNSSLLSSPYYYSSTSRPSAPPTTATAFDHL

Columns and labels:
[1] = target: SOX17 (human (endogenous in FTSEC and HGSOC cell lines and human tissues)) (UniProt Q9H6I2); test: co-IP
[2] = target: PAX8 (human (endogenous in FT194, FT246, FT282, OVCAR4, KURAMOCHI, OVSAHO and human tissues)) (UniProt Q06710); test: proximity ligation
[3] = target: PAX8 (human (endogenous in FT194, FT246, FT282, OVCAR4, KURAMOCHI, OVSAHO and human tissues)) (UniProt Q06710); test: co-IP
[4] = target: PAX8 (human (endogenous in FT194, FT246, FT282, OVCAR4, KURAMOCHI, OVSAHO and human tissues)) (UniProt Q06710); test: proximity ligation; remark: listed apart in the source
[5] = target: PAX8 (human (endogenous in FT194, FT246, FT282, OVCAR4, KURAMOCHI, OVSAHO and human tissues)) (UniProt Q06710); test: SEC

| binding [1] | binding [2] | binding [3] | binding [4] | binding [5] | Substance |
| --- | --- | --- | --- | --- | --- |
| binds | – | – | – | – | PAX8 (from UniProt Q06710 1-450) |
| – | binds | binds | binds | binds | SOX17 (from UniProt Q9H6I2 1-414) |
